Test results as given in the supplement of paper PMC8728848.
Some of the results follow.

Assays:
Test in all cases: glycan array binding signal (z-score within array); higher = stronger binding
Conditions in all cases: glycan notation: IUPAC condensed, linker removed
[1] = molecular target: Neu5Ac(a2-3)Gal(b1-4)GlcNAc(b1-3)GalNAc
How it was run: (§1)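 The binding signal is a Z-score computed within each array. Data were drawn from 3228 arrays in the Consortium for Functional Glycomics database, restricted to those with a known protein sequence. Scores were averaged over arrays of the same protein sequence at different concentrations or buffers, and over linkers, and negative values can be taken as non-binding.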

[2] = molecular target: Neu5Ac(a2-3)Gal(b1-4)GlcNAc(b1-3)[Neu5Ac(a2-3)Gal(b1-4)GlcNAc(b1-6)]GalNAc
How it was run: as §1

[3] = molecular target: Neu5Ac(a2-3)Gal(b1-4)GlcNAc(b1-6)GalNAc
How it was run: as §1

[4] = molecular target: Neu5Ac(a2-3)Gal(b1-4)GlcNAc(b1-6)[Gal(b1-3)]GalNAc
How it was run: as §1

[5] = molecular target: Neu5Ac(a2-3)Gal(b1-4)GlcNAc(b1-6)[Neu5Ac(a2-3)Gal(b1-3)]GalNAc
How it was run: as §1

[6] = molecular target: Neu5Ac(a2-3)Gal(b1-4)GlcNAc6S
How it was run: as §1

[7] = molecular target: Neu5Ac(a2-3)Gal(b1-4)[Fuc(a1-3)]GlcNAc
How it was run: as §1

[8] = molecular target: Neu5Ac(a2-3)Gal(b1-4)[Fuc(a1-3)]GlcNAc(b1-2)Man
How it was run: as §1

[9] = molecular target: Neu5Ac(a2-3)Gal(b1-4)[Fuc(a1-3)]GlcNAc(b1-3)Gal
How it was run: as §1

[10] = molecular target: Neu5Ac(a2-3)Gal(b1-4)[Fuc(a1-3)]GlcNAc(b1-3)Gal(b1-4)GlcNAc
How it was run: as §1

[11] = molecular target: Neu5Ac(a2-3)Gal(b1-4)[Fuc(a1-3)]GlcNAc(b1-3)Gal(b1-4)[Fuc(a1-3)]GlcNAc(b1-3)Gal(b1-4)[Fuc(a1-3)]GlcNAc
How it was run: as §1

[12] = molecular target: Neu5Ac(a2-3)Gal(b1-4)[Fuc(a1-3)]GlcNAc(b1-3)GalNAc
How it was run: as §1

[13] = molecular target: Neu5Ac(a2-3)Gal(b1-4)[Fuc(a1-3)]GlcNAc(b1-6)[Gal(b1-3)]GalNAc
How it was run: as §1

[14] = molecular target: Neu5Ac(a2-3)Gal(b1-4)[Fuc(a1-3)]GlcNAc(b1-6)[Neu5Ac(a2-3)Gal(b1-3)]GalNAc
How it was run: as §1

[15] = molecular target: Neu5Ac(a2-3)Gal(b1-4)[Fuc(a1-3)]GlcNAc6S
How it was run: as §1

[16] = molecular target: Neu5Ac(a2-3)Gal6S(b1-4)GlcNAc
How it was run: as §1

[17] = molecular target: Neu5Ac(a2-3)Gal6S(b1-4)[Fuc(a1-3)]GlcNAc
How it was run: as §1

Neu5Ac(a2-3)GalNAc = molecular target: Neu5Ac(a2-3)GalNAc
How it was run: as §1

[18] = molecular target: Neu5Ac(a2-3)GalNAc(b1-4)GlcNAc
How it was run: as §1

[19] = molecular target: Neu5Ac(a2-3)[GalNAc(b1-4)]Gal(b1-4)Glc
How it was run: as §1

[20] = molecular target: Neu5Ac(a2-3)[GalNAc(b1-4)]Gal(b1-4)GlcNAc
How it was run: as §1

[21] = molecular target: Neu5Ac(a2-3)[GalNAc(b1-4)]Gal(b1-4)GlcNAc(b1-3)GalNAc
How it was run: as §1

[22] = molecular target: Neu5Ac(a2-3)[Neu5Ac(a2-6)]GalNAc
How it was run: as §1

Neu5Ac(a2-6)Gal = molecular target: Neu5Ac(a2-6)Gal
How it was run: as §1

[23] = molecular target: Neu5Ac(a2-6)Gal(b1-3)GlcNAc(b1-3)[Gal(b1-4)GlcNAc(b1-6)]Gal(b1-4)Glc
How it was run: as §1

Neu5Ac(a2-6)Gal(b1-4)Glc = molecular target: Neu5Ac(a2-6)Gal(b1-4)Glc
How it was run: as §1

[24] = molecular target: Neu5Ac(a2-6)Gal(b1-4)GlcNAc
How it was run: as §1

[25] = molecular target: Neu5Ac(a2-6)Gal(b1-4)GlcNAc(b1-2)Man
How it was run: as §1

[26] = molecular target: Neu5Ac(a2-6)Gal(b1-4)GlcNAc(b1-2)Man(a1-3)Man(b1-4)GlcNAc(b1-4)GlcNAc
How it was run: as §1

[27] = molecular target: Neu5Ac(a2-6)Gal(b1-4)GlcNAc(b1-2)Man(a1-3)[Gal(b1-4)GlcNAc(b1-2)Man(a1-6)]Man(b1-4)GlcNAc(b1-4)GlcNAc
How it was run: as §1

[28] = molecular target: Neu5Ac(a2-6)Gal(b1-4)GlcNAc(b1-2)Man(a1-3)[GlcNAc(b1-2)Man(a1-6)]Man(b1-4)GlcNAc(b1-4)GlcNAc
How it was run: as §1

[29] = molecular target: Neu5Ac(a2-6)Gal(b1-4)GlcNAc(b1-2)Man(a1-3)[GlcNAc(b1-2)Man(b1-4)GlcNAc(b1-2)Man(a1-6)]Man(b1-4)GlcNAc(b1-4)GlcNAc
How it was run: as §1

[30] = molecular target: Neu5Ac(a2-6)Gal(b1-4)GlcNAc(b1-2)Man(a1-3)[GlcNAc(b1-4)][Neu5Ac(a2-6)Gal(b1-4)GlcNAc(b1-2)Man(a1-6)]Man(b1-4)GlcNAc(b1-4)GlcNAc
How it was run: as §1

[31] = molecular target: Neu5Ac(a2-6)Gal(b1-4)GlcNAc(b1-2)Man(a1-3)[Man(a1-6)]Man(b1-4)GlcNAc(b1-4)GlcNAc
How it was run: as §1

[32] = molecular target: Neu5Ac(a2-6)Gal(b1-4)GlcNAc(b1-2)Man(a1-3)[Neu5Ac(a2-3)Gal(b1-4)GlcNAc(b1-2)Man(a1-6)]Man(b1-4)GlcNAc(b1-4)GlcNAc
How it was run: as §1

[33] = molecular target: Neu5Ac(a2-6)Gal(b1-4)GlcNAc(b1-2)Man(a1-3)[Neu5Ac(a2-6)Gal(b1-4)GlcNAc(b1-2)Man(a1-6)]Man(b1-4)GlcNAc(b1-4)GlcNAc
How it was run: as §1

[34] = molecular target: Neu5Ac(a2-6)Gal(b1-4)GlcNAc(b1-2)Man(a1-3)[Neu5Ac(a2-6)Gal(b1-4)GlcNAc(b1-2)Man(a1-6)]Man(b1-4)GlcNAc(b1-4)[Fuc(a1-6)]GlcNAc
How it was run: as §1

[35] = molecular target: Neu5Ac(a2-6)Gal(b1-4)GlcNAc(b1-2)Man(a1-6)Man(b1-4)GlcNAc(b1-4)GlcNAc
How it was run: as §1

B1: CRT-1 (Homo sapiens), P27797 (protein)
chain: MLLSVPLLLGLLGLAVAEPAVYFKEQFLDGDGWTSRWIESKHKSDFGKFVLSSGKFYGDEEKDKGLQTSQDARFYALSASFEPFSNKGQTLVVQFTVKHEQNIDCGGGYVKLFPNSLDQTDMHGDSEYNIMFGPDICGPGTKKVHVIFNYKGKNVLINKDIRCKDDEFTHLYTLIVRPDNTYEVKIDNSQVESGSLEDDWDFLPPKKIKDPDASKPEDWDERAKIDDPTDSKPEDWDKPEHIPDPDAKKPEDWDEEMDGEWEPPVIQNPEYKGEWKPRQIDNPDYKGTWIHPEIDNPEYSPDPSIYAYDNFGVLGLDLWQVKSGTIFDNFLITNDEAYAEEFGNETWGVTKAAEKQMKDKQDEEQRLKEEEEDKKRKEEEEAEDKEDDEDKDEDEEDEEDKEEDEEEDVPGQAKDEL
[1]
  glycan array binding signal (z-score): 0.034
[2]
  glycan array binding signal (z-score): 0.871
[3]
  glycan array binding signal (z-score): 0
[4]
  glycan array binding signal (z-score): -0.261
[5]
  glycan array binding signal (z-score): -0.461
[6]
  glycan array binding signal (z-score): -0.433
[7]
  glycan array binding signal (z-score): -0.676
[8]
  glycan array binding signal (z-score): -0.884
[9]
  glycan array binding signal (z-score): 0.063
[10]
  glycan array binding signal (z-score): 0.745
[11]
  glycan array binding signal (z-score): -0.345
[12]
  glycan array binding signal (z-score): 1.69
[13]
  glycan array binding signal (z-score): -0.778
[14]
  glycan array binding signal (z-score): -0.167
[15]
  glycan array binding signal (z-score): -0.117
[16]
  glycan array binding signal (z-score): -0.492
[17]
  glycan array binding signal (z-score): -1
Neu5Ac(a2-3)GalNAc
  glycan array binding signal (z-score): 0.432
[18]
  glycan array binding signal (z-score): 0.366
[19]
  glycan array binding signal (z-score): -0.139
[20]
  glycan array binding signal (z-score): -0.28
[21]
  glycan array binding signal (z-score): -0.233
[22]
  glycan array binding signal (z-score): 0.076
Neu5Ac(a2-6)Gal
  glycan array binding signal (z-score): -0.177
[23]
  glycan array binding signal (z-score): -0.644
Neu5Ac(a2-6)Gal(b1-4)Glc
  glycan array binding signal (z-score): -0.325
[24]
  glycan array binding signal (z-score): -0.013
[25]
  glycan array binding signal (z-score): -0.532
[26]
  glycan array binding signal (z-score): 0.59
[27]
  glycan array binding signal (z-score): -0.009
[28]
  glycan array binding signal (z-score): -0.179
[29]
  glycan array binding signal (z-score): 12.5
[30]
  glycan array binding signal (z-score): -0.404
[31]
  glycan array binding signal (z-score): 0.357
[32]
  glycan array binding signal (z-score): 0.167
[33]
  glycan array binding signal (z-score): 2.53
[34]
  glycan array binding signal (z-score): 1.4
[35]
  glycan array binding signal (z-score): 0.824
